Experimental findings from PMC11585138 are described below.

The chains behind the UniProt entries cited, without tags or fusion partners. Residues count along the entry.
UniProt P12032, residues 25-205: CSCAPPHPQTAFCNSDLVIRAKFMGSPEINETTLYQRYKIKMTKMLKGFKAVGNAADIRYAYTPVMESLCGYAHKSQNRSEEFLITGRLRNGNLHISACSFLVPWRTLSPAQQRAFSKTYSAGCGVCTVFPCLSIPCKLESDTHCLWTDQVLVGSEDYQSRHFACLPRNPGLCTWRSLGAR

For this experiment, the target named is TFRC (mouse (endogenous in MC3T3-E1)) (UniProt Q62351). Briefly: co-IP; endogenous co-IP from total lysates (RIPA buffer) of control and HGHF-treated MC3T3-E1 osteoblasts; precipitated with anti-TFRC antibody or mock IgG and protein A/G agarose beads overnight at 4 °C; immunoblot.

No constants are given. Whether binding was seen depends on the method and setting. In cells and extracts the contact can be indirect. Some binding calls cover weakened binding; strength is not graded here.

TIMP1 (from UniProt P12032 25-205): the binding result is reported as “binds”.
